Laboratory results: PubChem BioAssay AID1259254 (NCATS, 2017)
Test: 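Finding genes that stop cells copying their DNA twice in one cycle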 (primary screen). Cell system: human HCT116 colorectal cancer cells. Reagents: single siRNA against human genes. Time to read-out: 3 days. Measurement: 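Nuclei stained with Hoechst and imaged; cell-cycle phase assigned by DNA content; G2 share scaled per plate, non-targeting siRNA 0%, GMNN siRNA 100%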. Scale: G2 robust z-score and G2 cells, % of GMNN control: higher = more G2 cells, more excess DNA replication. Call rule: 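Active siRNAs have a G2 robust z of 5 or more median absolute deviations over the median, which in these data means about 38% or higher of GMNN control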.
The whole screen tested about 59,000 reagents; this is an unselected part. In the full data, about 1,550 (2.6%) got an active call. 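G2 share is only a proxy for re-replication; each gene was hit by three separate siRNAs, and active genes were retested.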 Reagents against one gene are numbered here. Not all columns of the deposit are shown. Reagent sequences are not shown. The record does not give: the amount of reagent.

With knock-down of KIAA2012-AS1 (KIAA2012 antisense RNA 1) #1, the screen gave G2 robust z-score 0.311; G2 cells, % of GMNN control 5.16; inactive. KIAA2012-AS1 (KIAA2012 antisense RNA 1) #2 gave G2 robust z-score 0.781; G2 cells, % of GMNN control 8.46; inactive. Against KIAA2012-AS1 (KIAA2012 antisense RNA 1) #3, the entry reads G2 robust z-score 0.802; G2 cells, % of GMNN control 8.61; inactive. After knock-down of FOXP3 (forkhead box P3) #1, the record shows G2 robust z-score -0.814; G2 cells, % of GMNN control -2.76; inactive. For FOXP3 (forkhead box P3) #2, the entry reads G2 robust z-score 0.449; G2 cells, % of GMNN control 6.13; inactive. For FOXP3 (forkhead box P3) #3, the values are G2 robust z-score 0.0918; G2 cells, % of GMNN control 3.61; inactive.

Depletion of FHL2 (four and a half LIM domains 2) #1 resulted in: G2 robust z-score -0.328; G2 cells, % of GMNN control 0.66; inactive. With knock-down of FHL2 (four and a half LIM domains 2) #2, the screen gave G2 robust z-score 0.141; G2 cells, % of GMNN control 3.96; inactive. FHL2 (four and a half LIM domains 2) #3 scored G2 robust z-score 0.809; G2 cells, % of GMNN control 8.66; inactive. Silencing of CIAO1 (cytosolic iron-sulfur assembly component 1) #1 gave: G2 robust z-score -0.233; G2 cells, % of GMNN control 1.33; inactive. Knock-down of CIAO1 (cytosolic iron-sulfur assembly component 1) #2 gave: G2 robust z-score -0.536; G2 cells, % of GMNN control -0.806; inactive. CIAO1 (cytosolic iron-sulfur assembly component 1) #3 showed G2 robust z-score -0.469; G2 cells, % of GMNN control -0.331; inactive.

Not a retest: 2 of the entries above.
FOXP3 (forkhead box P3) #2: G2 robust z-score = 0.449; G2 cells, % of GMNN control = 6.13; Outcome = inactive
FOXP3 (forkhead box P3) #3: G2 robust z-score = 0.0918; G2 cells, % of GMNN control = 3.61; Outcome = inactive
